The source of these data is patent US20100174053A1 (published 2010).

By UniProt entry, the sequences of proteins in these tests, tags left out. Residues count along the entry.
UniProt P31994, residues 43-217: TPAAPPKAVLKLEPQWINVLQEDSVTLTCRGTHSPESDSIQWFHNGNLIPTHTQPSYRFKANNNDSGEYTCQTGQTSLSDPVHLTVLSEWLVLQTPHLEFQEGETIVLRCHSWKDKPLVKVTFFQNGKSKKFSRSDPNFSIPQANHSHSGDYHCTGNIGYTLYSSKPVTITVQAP

Residue numbers refer to the chain shown, from its start. Results are given in words; binding and its absence hold for the method and conditions named. Some entries that bind do so weakly or less than the wild type.

The target of the test is CD32B-Fc (UniProt P31994). Put plainly: competition ELISA on CD32B-Fc; competitor anti-CD32B antibody at 50 ng/ml. A general note: In an ELISA, binding on a coated surface is turned into a signal by an enzyme label.

B1: CD32B-CD79-1 bispecific diabody (bispecific antibody)
chain 1: DVVMTQSPLSLPVTLGQPASISCKSSQSLLDSDGKTYLNWFQQRPGQSPNRLIYLVSKLDSGVPDRFSGSGSGTDFTLKISRVEAEDVGVYYCWQGTHFPLTFGGGTKLEIKGGGSGGGGEVQLVESGGGLVQPGGSLRLSCAASGFTFSDAWMDWVRQAPGKGLEWVAEIRNKAKNHATYYAESVIGRFTISRDDAKNSLYLQMNSLRAEDTAVYYCGALGLDYWGQGTLVTVSSLGGC
chain 2: DIQMTQSPSSLSASVGDRVTITCRASQEISGYLSWLQQKPGKAPRRLIYAASTLDSGVPSRFSGSESGTEFTLTISSLQPEDFATYYCLQYFSYPLTFGGGTKVEIKGGGSGGGGQVQLVQSGAEVKKPGASVKVSCKASGYTFTSYWMNWVRQAPGQGLEWIGMIDPSDSETHYNQMFKDRVTMTTDTSTSTAYMELRSLRSDDTAVYYCARAMGYWGQGTTVTVSSLGGC
On to B1, for which the binding entry is recorded as “binds”.

B2: CD32B-CD79-2 bispecific diabody (bispecific antibody)
chain 1: B1 chain 1
chain 2: B1 chain 2 with M178K
For B2, the binding result was “binds”.
